At least one structure is not confirmed: it was looked up by name or label, or the drawing left a doubt.
Tests used:
hearing loss [1] = test: Prevention of recurrence of hearing loss in a successfully treated patient, one ear treated, other ear untreated; type: in vivo, human; conditions: patient after successful treatment, untreated side again exhibits symptoms
Source text: A composition comprising the calcium channel blocker nifedipine is directly applied to the external ear space of one ear while the other ear is left untreated. […] A composition comprising the ACE inhibitor enalapril is directly applied to the external ear space of one ear while the other ear is left untreated. […] A composition comprising the angiotensin receptor blocker losartan is directly applied to the external ear space of one ear while the other ear is left untreated. […] A composition comprising the calcium channel blocker nifedipine is administered by injection into the middle ear space of one ear while the other ear is left untreated. […] A composition comprising the ACE inhibitor enalapril is administered by injection into the middle ear space of one ear while the other ear is left untreated. […] A composition comprising the angiotensin receptor blocker losartan is administered by injection into the middle ear space of one ear while the other ear is left untreated. […] A composition comprising the calcium channel blocker nifedipine is administered by injection into the inner ear space of one ear while the other ear is left untreated. […] A composition comprising the ACE inhibitor enalapril is administered by injection into the inner ear space of one ear while the other ear is left untreated. […] A composition comprising the angiotensin receptor blocker losartan is administered by injection into the inner ear space of one ear while the other ear is left untreated.

hearing loss [2] = test: Treatment of hearing loss in a patient, one ear treated, other ear untreated; type: in vivo, human
Source text: A patient is diagnosed with hearing loss of the same magnitude in both ears. A composition comprising the calcium channel blocker nifedipine is directly applied to the external ear space of one ear while the other ear is left untreated. […] A patient is diagnosed with hearing loss of the same magnitude in both ears. A composition comprising the ACE inhibitor enalapril is directly applied to the external ear space of one ear while the other ear is left untreated. […] A patient is diagnosed with hearing loss of the same magnitude in both ears. A composition comprising the angiotensin receptor blocker losartan is directly applied to the external ear space of one ear while the other ear is left untreated. […] A patient is diagnosed with hearing loss of the same magnitude in both ears. A composition comprising the calcium channel blocker nifedipine is administered by injection into the middle ear space of one ear while the other ear is left untreated. […] A patient is diagnosed with hearing loss of the same magnitude in both ears. A composition comprising the ACE inhibitor enalapril is administered by injection into the middle ear space of one ear while the other ear is left untreated. […] A patient is diagnosed with hearing loss of the same magnitude in both ears. A composition comprising the angiotensin receptor blocker losartan is administered by injection into the middle ear space of one ear while the other ear is left untreated. […] A patient is diagnosed with hearing loss of the same magnitude in both ears. A composition comprising the calcium channel blocker nifedipine is administered by injection into the inner ear space of one ear while the other ear is left untreated. […] A patient is diagnosed with hearing loss of the same magnitude in both ears. A composition comprising the ACE inhibitor enalapril is administered by injection into the inner ear space of one ear while the other ear is left untreated. […] A patient is diagnosed with hearing loss of the same magnitude in both ears. […]

[3] = composition directly applied to the external ear space of one ear
[4] = composition injected into the inner ear space of one ear
[5] = composition injected into the middle ear space of one ear

`COC(=O)C1=C(C)NC(C)=C(C(=O)OC)C1c1ccccc1[N+](=O)[O-]` [nifedipine] was tested, and the “level of hearing of treated ear after a period of time (recurrence of hearing loss)” value (“level of hearing … (recurrence of hearing loss)” below) (hearing loss [1]; [3]) was “maintained the level of hearing”, the “level of hearing … (recurrence of hearing loss)” value (hearing loss [1]; [4]) was “maintained the level of hearing” and the “level of hearing … (recurrence of hearing loss)” value (hearing loss [1]; [5]) was “maintained the level of hearing”. The “hearing loss of treated ear compared to untreated ear” value (hearing loss [2]; [3]) was “reduced hearing loss”, the “hearing loss of treated ear compared to untreated ear” value (hearing loss [2]; [4]) was “reduced hearing loss” and the “hearing loss of treated ear compared to untreated ear” value (hearing loss [2]; [5]) was “reduced hearing loss”.

Source: US20210322395A1, “METHOD TO PREVENT AND TREAT HEARING LOSS BY CALCIUM CHANNEL BLOCKERS, ANGIOTENSIN CONVERTING ENZYME INHIBITORS, AND ANGIOTENSIN RECEPTOR BLOCKERS” (priority 2018, published 2021)
